Experimental data from patent US20220133889A1.
Results are given in words; binding and its absence hold for the method and conditions named. Some binding calls cover weakened binding; strength is not graded here.

Experiments:
[1] = biological target: cynomolgus TIM-3 expressed on transfected cells (cynomolgus); assay: flow cytometry on cells transfected with cynoTIM-3
[2] = biological target: cynomolgus TIM-3 expressed on transfected cells (cynomolgus); assay: binding curves on transfected cells (FIGS. 2A-2E)
[3] = biological target: cynomolgus TIM-3 expressed on transfected cells (cynomolgus); assay: flow cytometry on transfected cells

binding [1]: binds
binding [2]: binds
binding [3]: binds
B1: ABTIM3 (antibody, V domains shown)
VH: QVQLQQPGAELVKPGASVKMSCKASGYTFTSYNMHWIKQTPGQGLEWIGDIYPGNGDTSYNQKFKGKATLTADKSSSTVYMQLSSLTSEDSAVYYCARVGGAFPMDYWGQGTSVTVSS
VL: DIVLTQSPASLAVSLGQRATISCRASESVEYYGTSLMQWYQQKPGQPPKLLIYAASNVESGVPARFSGSGSGTDFSLNIHPVEEDDIAIYFCQQSRKDPSTFGGGTKLEIK
